Results as given in patent publication US8026208B2 (The Board of Trustees of the Leland Stanford Junior …, priority 2007, dated 2011).

Experiment: peptide made by a vendor
Conditions: whole synthesis

RADSRADC
purity (crude or final not stated): purity>82%

No end group written: not given here.
